Data taken from the supplement of paper PMC10849652.
Some of the results follow.

By UniProt entry, the sequences of proteins in these tests, tags left out. Where a name states a change or a piece, a line headed by the entry shows the natural chain unless it says otherwise.
UniProt Q9NVF7: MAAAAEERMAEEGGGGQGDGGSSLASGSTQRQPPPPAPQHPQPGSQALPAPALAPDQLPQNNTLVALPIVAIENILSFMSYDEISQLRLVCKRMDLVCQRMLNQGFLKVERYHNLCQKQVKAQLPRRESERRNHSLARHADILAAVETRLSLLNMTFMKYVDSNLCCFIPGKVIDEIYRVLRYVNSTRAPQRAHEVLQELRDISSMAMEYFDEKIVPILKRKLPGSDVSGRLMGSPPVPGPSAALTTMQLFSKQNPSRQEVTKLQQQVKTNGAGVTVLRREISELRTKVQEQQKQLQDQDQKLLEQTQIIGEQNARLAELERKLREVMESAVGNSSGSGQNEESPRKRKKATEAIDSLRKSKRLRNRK
UniProt Q4L180: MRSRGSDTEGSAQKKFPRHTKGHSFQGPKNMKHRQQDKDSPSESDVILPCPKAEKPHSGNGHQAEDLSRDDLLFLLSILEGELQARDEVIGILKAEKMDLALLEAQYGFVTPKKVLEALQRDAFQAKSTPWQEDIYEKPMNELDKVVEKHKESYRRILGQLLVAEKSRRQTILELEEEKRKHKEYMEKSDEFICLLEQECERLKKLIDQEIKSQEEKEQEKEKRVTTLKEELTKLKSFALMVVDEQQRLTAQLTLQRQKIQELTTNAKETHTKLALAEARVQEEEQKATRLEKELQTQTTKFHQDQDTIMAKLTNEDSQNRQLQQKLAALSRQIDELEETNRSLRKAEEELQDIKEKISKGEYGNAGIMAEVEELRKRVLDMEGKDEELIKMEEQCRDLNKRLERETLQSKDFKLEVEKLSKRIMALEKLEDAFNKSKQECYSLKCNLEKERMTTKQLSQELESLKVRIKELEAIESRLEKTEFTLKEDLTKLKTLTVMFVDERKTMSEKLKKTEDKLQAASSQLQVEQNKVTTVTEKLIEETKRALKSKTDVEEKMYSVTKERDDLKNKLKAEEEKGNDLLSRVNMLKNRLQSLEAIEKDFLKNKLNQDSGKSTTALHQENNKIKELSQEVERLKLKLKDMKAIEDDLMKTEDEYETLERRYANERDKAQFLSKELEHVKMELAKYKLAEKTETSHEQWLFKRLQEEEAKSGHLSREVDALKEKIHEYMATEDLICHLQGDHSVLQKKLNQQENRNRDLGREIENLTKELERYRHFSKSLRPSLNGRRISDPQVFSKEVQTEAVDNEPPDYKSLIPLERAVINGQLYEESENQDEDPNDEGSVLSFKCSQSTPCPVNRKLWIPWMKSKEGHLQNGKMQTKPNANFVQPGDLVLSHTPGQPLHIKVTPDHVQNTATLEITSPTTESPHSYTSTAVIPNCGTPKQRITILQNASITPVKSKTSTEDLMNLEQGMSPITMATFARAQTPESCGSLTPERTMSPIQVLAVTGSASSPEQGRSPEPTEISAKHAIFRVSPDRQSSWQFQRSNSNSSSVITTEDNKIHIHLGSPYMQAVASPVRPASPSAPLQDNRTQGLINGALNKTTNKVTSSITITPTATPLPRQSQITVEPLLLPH
UniProt Q4VC44: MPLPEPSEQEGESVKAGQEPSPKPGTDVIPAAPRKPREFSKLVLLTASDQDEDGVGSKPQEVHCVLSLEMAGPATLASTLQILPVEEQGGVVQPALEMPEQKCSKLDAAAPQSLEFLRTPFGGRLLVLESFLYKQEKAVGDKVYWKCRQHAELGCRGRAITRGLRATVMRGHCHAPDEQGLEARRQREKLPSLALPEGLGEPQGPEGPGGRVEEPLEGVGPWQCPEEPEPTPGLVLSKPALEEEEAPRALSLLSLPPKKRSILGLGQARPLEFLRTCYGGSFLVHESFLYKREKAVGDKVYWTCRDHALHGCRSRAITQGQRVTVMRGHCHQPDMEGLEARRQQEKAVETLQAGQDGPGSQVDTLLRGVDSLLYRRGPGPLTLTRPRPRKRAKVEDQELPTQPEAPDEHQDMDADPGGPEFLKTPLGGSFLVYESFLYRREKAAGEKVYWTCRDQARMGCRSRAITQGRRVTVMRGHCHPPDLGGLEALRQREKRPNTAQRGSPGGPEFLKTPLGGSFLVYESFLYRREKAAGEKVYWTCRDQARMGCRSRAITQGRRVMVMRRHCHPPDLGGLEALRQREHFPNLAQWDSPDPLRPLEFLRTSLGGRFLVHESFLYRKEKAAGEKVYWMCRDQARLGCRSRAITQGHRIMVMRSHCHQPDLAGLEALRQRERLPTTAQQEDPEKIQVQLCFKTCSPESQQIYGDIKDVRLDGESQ
UniProt Q9Y2H6: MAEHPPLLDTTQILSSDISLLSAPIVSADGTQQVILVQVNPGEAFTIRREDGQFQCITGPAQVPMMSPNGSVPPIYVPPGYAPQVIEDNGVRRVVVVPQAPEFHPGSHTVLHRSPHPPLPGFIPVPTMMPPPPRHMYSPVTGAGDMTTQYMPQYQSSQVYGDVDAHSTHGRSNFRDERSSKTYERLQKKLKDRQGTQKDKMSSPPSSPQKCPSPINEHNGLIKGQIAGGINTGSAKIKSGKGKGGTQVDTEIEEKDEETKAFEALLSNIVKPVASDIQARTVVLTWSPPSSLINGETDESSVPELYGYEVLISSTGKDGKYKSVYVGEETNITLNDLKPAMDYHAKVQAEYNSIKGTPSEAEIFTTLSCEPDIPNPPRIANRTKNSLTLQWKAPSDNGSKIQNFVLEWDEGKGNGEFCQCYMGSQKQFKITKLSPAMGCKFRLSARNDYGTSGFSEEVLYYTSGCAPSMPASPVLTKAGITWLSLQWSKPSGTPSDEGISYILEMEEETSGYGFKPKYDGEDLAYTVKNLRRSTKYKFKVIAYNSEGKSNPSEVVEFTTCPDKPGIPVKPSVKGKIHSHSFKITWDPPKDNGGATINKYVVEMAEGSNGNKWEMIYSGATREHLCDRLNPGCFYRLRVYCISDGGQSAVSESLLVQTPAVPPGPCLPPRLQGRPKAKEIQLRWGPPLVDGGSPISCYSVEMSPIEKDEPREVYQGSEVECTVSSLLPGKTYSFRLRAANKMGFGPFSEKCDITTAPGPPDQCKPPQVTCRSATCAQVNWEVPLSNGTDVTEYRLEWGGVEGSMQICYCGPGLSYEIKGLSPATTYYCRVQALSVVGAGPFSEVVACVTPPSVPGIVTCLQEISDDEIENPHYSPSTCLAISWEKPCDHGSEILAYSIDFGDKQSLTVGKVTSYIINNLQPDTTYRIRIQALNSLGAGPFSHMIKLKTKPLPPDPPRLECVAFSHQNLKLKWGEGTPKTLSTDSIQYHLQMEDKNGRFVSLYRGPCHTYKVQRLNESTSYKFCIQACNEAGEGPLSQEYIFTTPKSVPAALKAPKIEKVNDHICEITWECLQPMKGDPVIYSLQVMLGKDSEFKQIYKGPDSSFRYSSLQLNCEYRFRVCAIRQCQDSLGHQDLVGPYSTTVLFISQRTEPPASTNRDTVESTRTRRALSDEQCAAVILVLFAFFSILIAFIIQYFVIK
UniProt Q6PCT2: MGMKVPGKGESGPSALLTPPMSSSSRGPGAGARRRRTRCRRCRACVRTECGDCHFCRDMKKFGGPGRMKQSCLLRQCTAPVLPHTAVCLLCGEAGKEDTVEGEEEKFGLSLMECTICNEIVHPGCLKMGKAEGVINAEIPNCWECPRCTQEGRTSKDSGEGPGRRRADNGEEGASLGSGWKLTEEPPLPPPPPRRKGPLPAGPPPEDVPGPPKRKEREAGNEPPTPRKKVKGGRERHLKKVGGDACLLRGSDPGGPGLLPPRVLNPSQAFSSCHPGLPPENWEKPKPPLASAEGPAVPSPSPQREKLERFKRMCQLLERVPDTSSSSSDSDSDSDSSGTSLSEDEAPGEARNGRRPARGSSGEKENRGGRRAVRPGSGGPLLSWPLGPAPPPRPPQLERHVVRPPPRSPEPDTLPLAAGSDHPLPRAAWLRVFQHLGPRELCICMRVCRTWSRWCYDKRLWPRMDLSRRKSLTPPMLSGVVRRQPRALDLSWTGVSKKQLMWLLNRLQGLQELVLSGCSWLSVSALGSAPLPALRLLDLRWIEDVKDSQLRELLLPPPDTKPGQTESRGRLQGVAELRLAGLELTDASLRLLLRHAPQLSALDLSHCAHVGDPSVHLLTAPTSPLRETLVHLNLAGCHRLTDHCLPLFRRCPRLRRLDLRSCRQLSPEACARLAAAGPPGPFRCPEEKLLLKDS
UniProt Q96AY3, whole entry, looked up: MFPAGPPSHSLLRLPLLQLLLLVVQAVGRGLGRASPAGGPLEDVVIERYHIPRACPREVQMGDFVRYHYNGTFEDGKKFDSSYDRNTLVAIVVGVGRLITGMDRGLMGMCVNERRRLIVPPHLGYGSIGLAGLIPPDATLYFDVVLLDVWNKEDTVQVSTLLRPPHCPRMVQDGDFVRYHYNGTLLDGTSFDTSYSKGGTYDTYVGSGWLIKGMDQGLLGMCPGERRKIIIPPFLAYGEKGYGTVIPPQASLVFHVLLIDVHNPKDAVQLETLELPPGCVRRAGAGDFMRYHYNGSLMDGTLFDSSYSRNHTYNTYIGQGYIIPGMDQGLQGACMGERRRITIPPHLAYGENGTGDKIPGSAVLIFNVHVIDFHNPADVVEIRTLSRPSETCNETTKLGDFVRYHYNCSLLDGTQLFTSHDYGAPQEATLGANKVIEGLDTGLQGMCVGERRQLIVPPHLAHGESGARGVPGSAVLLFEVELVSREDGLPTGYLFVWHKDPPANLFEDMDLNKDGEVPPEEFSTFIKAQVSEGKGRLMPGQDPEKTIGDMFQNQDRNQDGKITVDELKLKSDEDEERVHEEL
UniProt Q53R41: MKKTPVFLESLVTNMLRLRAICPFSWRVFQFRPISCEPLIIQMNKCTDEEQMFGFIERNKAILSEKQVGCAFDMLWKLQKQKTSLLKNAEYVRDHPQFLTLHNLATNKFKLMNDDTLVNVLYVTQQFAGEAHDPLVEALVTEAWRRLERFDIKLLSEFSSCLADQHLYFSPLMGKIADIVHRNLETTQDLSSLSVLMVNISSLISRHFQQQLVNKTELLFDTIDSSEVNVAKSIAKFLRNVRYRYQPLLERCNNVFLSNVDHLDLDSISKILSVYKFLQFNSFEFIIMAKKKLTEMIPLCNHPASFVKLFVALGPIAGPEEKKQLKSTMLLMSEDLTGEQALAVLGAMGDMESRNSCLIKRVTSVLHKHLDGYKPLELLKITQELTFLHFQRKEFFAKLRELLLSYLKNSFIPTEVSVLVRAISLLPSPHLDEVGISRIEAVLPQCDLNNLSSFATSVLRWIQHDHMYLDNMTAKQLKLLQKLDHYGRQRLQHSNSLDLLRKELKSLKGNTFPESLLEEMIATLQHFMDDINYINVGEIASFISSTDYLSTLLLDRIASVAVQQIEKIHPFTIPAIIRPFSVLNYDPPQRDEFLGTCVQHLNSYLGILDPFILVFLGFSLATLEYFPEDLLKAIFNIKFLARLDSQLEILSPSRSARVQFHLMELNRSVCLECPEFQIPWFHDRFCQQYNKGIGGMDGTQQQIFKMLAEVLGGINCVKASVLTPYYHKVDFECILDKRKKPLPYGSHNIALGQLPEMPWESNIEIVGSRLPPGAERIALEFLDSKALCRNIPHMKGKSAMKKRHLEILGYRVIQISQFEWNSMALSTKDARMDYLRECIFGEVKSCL
UniProt Q9H469: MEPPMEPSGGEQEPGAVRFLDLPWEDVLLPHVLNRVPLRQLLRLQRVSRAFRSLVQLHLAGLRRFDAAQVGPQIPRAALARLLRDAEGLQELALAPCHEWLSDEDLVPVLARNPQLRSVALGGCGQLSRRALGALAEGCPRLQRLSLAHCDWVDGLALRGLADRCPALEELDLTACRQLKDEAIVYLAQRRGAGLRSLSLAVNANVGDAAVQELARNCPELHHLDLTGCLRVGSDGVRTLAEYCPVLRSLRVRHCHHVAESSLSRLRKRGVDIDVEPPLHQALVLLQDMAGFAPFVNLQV
UniProt O15287: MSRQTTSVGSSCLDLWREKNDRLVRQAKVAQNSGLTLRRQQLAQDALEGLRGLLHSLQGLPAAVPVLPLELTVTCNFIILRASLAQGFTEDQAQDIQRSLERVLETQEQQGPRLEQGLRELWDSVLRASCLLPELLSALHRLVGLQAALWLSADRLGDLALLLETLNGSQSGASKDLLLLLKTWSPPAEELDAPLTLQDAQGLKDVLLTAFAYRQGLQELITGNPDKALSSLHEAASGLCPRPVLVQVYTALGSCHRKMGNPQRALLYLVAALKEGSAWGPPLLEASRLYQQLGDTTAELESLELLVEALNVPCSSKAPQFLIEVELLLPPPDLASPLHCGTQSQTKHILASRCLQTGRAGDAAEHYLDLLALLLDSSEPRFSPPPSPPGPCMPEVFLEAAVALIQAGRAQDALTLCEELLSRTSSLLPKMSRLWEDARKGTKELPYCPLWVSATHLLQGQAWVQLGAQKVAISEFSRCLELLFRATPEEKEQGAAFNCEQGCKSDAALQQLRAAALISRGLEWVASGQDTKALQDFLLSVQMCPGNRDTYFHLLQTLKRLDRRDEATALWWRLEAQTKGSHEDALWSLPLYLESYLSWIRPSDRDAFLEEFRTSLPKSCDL

compound: CC(=O)c1cnc2ccc(-c3cc(Cl)c(O)c(Cl)c3)nc2c1N[C@H]1CC[C@H](CN(C)C)CC1; assay: log2 fold change, soluble protein after heating vs DMSO (PISA); higher = thermal stabilisation; K562 lysate, 10 uM; active = over 0.2 and 3.5 SD of the protein, either way, in both replicates (recomputed)
How it was run: (§1)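 The values are log-two fold changes in thermal stability compared with solvent controls and come from duplicates. They were obtained by TMTpro 16plex LC-MS/MS, with channel sums equalised, on the supernatant after 21,000xg for 90 min. That supernatant came from crude K562 extract at 1 mg/mL protein treated with 10 μM compound for 30 min, heated for 3 min across 48°C-58°C, pooled and brought to 0.5% NP-40 at 4°C.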

Row | Target | log2 fold change
1 | FLII isoform 2 (UniProt Q13045) | inactive: 0.072
2 | FASTKD3 (UniProt Q14CZ7) | inactive: 0.054
3 | FCHSD2 (UniProt O94868) | inactive: -0.027
4 | FDPS, A0A087WVN4 | inactive: 0.011
5 | FBXO28 (UniProt Q9NVF7) | inactive: -0.006
6 | FASN, A0A0U1RRG3 | inactive: 0.555
7 | FLNA (UniProt H0Y5C6) | inactive: 0.11
8 | FER isoform 3 (UniProt P16591) | inactive: -0.061
9 | FILIP1L (UniProt Q4L180) | inactive: 0.123
10 | FOSL1 (UniProt P15407) | inactive: 0.074
11 | FAT1 (UniProt Q14517) | inactive: -0.109
12 | FAXDC2 (UniProt Q96IV6) | inactive: -0.088
13 | FAM83H (UniProt Q6ZRV2) | inactive: -0.133
14 | FLYWCH1 isoform 3 (UniProt Q4VC44) | inactive: 0.073
15 | FEN1 (UniProt I3L3E9) | inactive: -0.053
16 | FANCE (UniProt Q9HB96) | inactive: 0.153

compound: CC(C)(C)Cn1c(N)nc2ccc(-c3[nH]c(C(C)(C)C)nc3-c3ccc(F)cc3)nc21 [ralimetinib]; assay: as above
How it was run: as §1

Row | Target | log2 fold change
17 | FNDC3A (UniProt Q9Y2H6) | inactive: 0.118
18 | FNTA (UniProt H0YCW1) | inactive: -0.021
19 | FBXO33 (UniProt Q7Z6M2) | inactive: 0.055
20 | FBXL4 (UniProt Q9UKA2) | inactive: 0.063
21 | FBXL19 (UniProt Q6PCT2) | inactive: -0.042
22 | FBXO28 (UniProt Q9NVF7) | inactive: 0.073
23 | FKBP10 (UniProt Q96AY3) | inactive: -0.113
24 | FILIP1L (UniProt Q4L180) | inactive: 0.162
25 | FASTKD1 (UniProt Q53R41) | inactive: 0.035
26 | FBXL15 (UniProt Q9H469) | inactive: 0.069
27 | FAT1 (UniProt Q14517) | inactive: -0.034
28 | FCGR2B (UniProt P31994) | inactive: 0
29 | FLYWCH1 isoform 3 (UniProt Q4VC44) | inactive: -0.048
30 | FEN1 (UniProt I3L3E9) | inactive: 0.161
31 | FARP2 (UniProt H7C3M7) | inactive: -0.01
32 | FANCG (UniProt O15287) | inactive: -0.116

compound: CC(C)(O)CC(=O)NCCn1ccc2ncnc(Nc3ccc(Oc4cccc(C(F)(F)F)c4)c(Cl)c3)c21; assay: as above
How it was run: as §1

Row | Target | log2 fold change
33 | FNDC3A (UniProt Q9Y2H6) | inactive: -0.207
34 | FNTA (UniProt H0YCW1) | inactive: -0.015
35 | FBXO33 (UniProt Q7Z6M2) | inactive: -0.169
36 | FBXL4 (UniProt Q9UKA2) | inactive: -0.049
37 | FBXL19 (UniProt Q6PCT2) | inactive: 0.034
38 | FBXO28 (UniProt Q9NVF7) | inactive: 0.316
39 | FKBP10 (UniProt Q96AY3) | inactive: -0.072
40 | FILIP1L (UniProt Q4L180) | inactive: 0.062
41 | FASTKD1 (UniProt Q53R41) | inactive: -0.114
42 | FBXL15 (UniProt Q9H469) | inactive: -0.222
43 | FAT1 (UniProt Q14517) | inactive: -0.016
44 | FCGR2B (UniProt P31994) | inactive: 0.096
45 | FLYWCH1 isoform 3 (UniProt Q4VC44) | inactive: -0.045
46 | FEN1 (UniProt I3L3E9) | inactive: 0.016
47 | FARP2 (UniProt H7C3M7) | inactive: -0.007
48 | FANCG (UniProt O15287) | inactive: -0.046

compound: CC(C)C1=C2N=C(C=C(N2N=C1)NCC3=CC=CC=C3)NCCCCCCN; assay: as above
How it was run: as §1

Row | Target | log2 fold change
49 | FNDC3A (UniProt Q9Y2H6) | inactive: -0.093
50 | FBXL4 (UniProt Q9UKA2) | inactive: -0.161
51 | FBXL19 (UniProt Q6PCT2) | inactive: 0.176
52 | FLNA (UniProt H0Y5C6) | inactive: -0.106
53 | FASTKD1 (UniProt Q53R41) | inactive: 0.018
54 | FAT1 (UniProt Q14517) | inactive: -0.05
55 | FAXDC2 (UniProt Q96IV6) | inactive: -0.032
56 | FARP2 (UniProt H7C3M7) | inactive: -0.048

compound: CC1=C(C(CC(=O)N1)C2=CC=C(C=C2)C(F)(F)F)C(=O)NC3=C(C=C4C(=C3)C=NN4)F; assay: as above
How it was run: as §1

Row | Target | log2 fold change
57 | FASTKD3 (UniProt Q14CZ7) | inactive: -0.16
58 | FNDC3A (UniProt Q9Y2H6) | inactive: 0.31
59 | FCHSD2 (UniProt O94868) | inactive: -0.175
60 | FBXL4 (UniProt Q9UKA2) | inactive: 0.046
61 | FKBP10 (UniProt Q96AY3) | inactive: 0.099
62 | FASTKD1 (UniProt Q53R41) | inactive: 0.009
63 | FBXL15 (UniProt Q9H469) | inactive: 0.029
64 | FOSL1 (UniProt P15407) | inactive: 0.155
65 | FCF1 (UniProt Q9Y324) | inactive: 0.041
66 | FLYWCH1 isoform 3 (UniProt Q4VC44) | inactive: 0.109
67 | FEN1 (UniProt I3L3E9) | inactive: -0.059
68 | FARP2 (UniProt H7C3M7) | inactive: -0.035
69 | FANCE (UniProt Q9HB96) | inactive: -0.045
70 | FANCG (UniProt O15287) | inactive: -0.09
